Measured values from patent US11628221B2, “Peptide linker and combination for prodrugs activated by prostate-specific antigen” (priority 2017, dated 2023).
Part of at least one peptide drawing is inferred or uncertain, most often the ends. Square brackets hold non-standard residues; d marks the D form. Peptide text beside a SMILES is read from it. * marks the point of attachment. Doxorubicin(3'-N) = COc1cccc2c1C(=O)c1c(O)c3c(c(O)c1C2=O)C[C@@](O)(C(=O)CO)C[C@@H]3O[C@H]1C[C@H](N*)[C@H](O)[C@H](C)O1; Chg = N[C@H](C(=O)O)C1CCCCC1; X1 = O=C(O)CCCNC(=O)CC(=O)*

Test system: DU145 cells
Assay: Prodrug cytotoxicity in non-PSA-secreting DU145 cells (MTT assay), selectivity
Assay type: cell-based, human
Details: 72 h; for Selectivity against DU145: LNCaP versus non-PSA-secreting DU145 cells
Description: Monolayer cultures of PSA-secreting LNCaP and non-PSA-secreting DU145 human prostate carcinoma cells were conducted in growth medium in a CO2 incubator under a humidified atmosphere at 37° C. for 3 weeks prior to initiating cytotoxicity experiments. During cell growth, media were changed every 3 days and trypsinization carried out at 80% confluence with a 1:4 split for subsequent cultures. Cells were grown on 96-well plates for 48 h at initial concentrations of 5000 cells/well. At the end of the 48-h period, the growth medium was replaced by serum-free medium RPMI 1640 medium containing L-glutamine (2 mM), 2% TCM, penicillin G (100 units/mL) and streptomycin sulfate (100 units/mL), and prodrugs added to wells at concentrations ranging from 0.07 to 100 μM. The plates were incubated at 37° C. for 72 h under a humidified CO2 atmosphere, and cell viability determined using the MTT assay. Briefly, 10 μL aliquots of a 12 mM MTT solution were added to wells and the plates incubated in a CO2 incubator under a humidified atmosphere at 37° C. for 4 h. Well contents were then solubilized with 1% SDS (100 μL/well) for 12 h, and OD570 values measured on a Dynatech MR5000 plate reader. Cell viability was computed as a percentage of control growth, and IC50 values determined as the concentration at which cell growth is inhibited by 50%.
To assess cytotoxicity and tumor selectivity, all prodrugs were incubated in cultured cell lines secreting (LNCaP) or lacking (DU145) PSA for a period of 72 h. Doxorubicin was used as a positive control and cell viability determined at the end of the incubation period using an MTT assay. It was anticipated that peptide prodrugs would be activated extracellularly in LNCaP, but not DU145 cells, by the proteolytic action of PSA releasing doxorubicin that would ultimately lead to cell death.

| SMILES | Selectivity against DU145 | selectivity against non-PSA-producing DU145 cells (in words) |
| --- | --- | --- |
| COc1cccc2c1C(=O)c1c(O)c3c(c(O)c1C2=O)C[C@@](O)(C(=O)COC(=O)C(C)(C)CONC(=O)[C@H](CCC(N)=O)NC(=O)[C@@H](NC(=O)[C@H](CO)NC(=O)[C@H](C)NC(=O)CC(=O)NCCCC(=O)O)C1CCCCC1)C[C@@H]3O[C@H]1C[C@H](N)[C@H](O)[C@H](C)O1 [Prodrug 4, GABA←mGly-Ala-Ser-Chg-Gln-NH—O—CH2—C(Me)2C(O)-14-O-Dox] | 560 |  |
| COc1cccc2c1C(=O)c1c(O)c3c(c(O)c1C2=O)C[C@@](O)(C(=O)CO)C[C@@H]3O[C@H]1C[C@H](NC(=O)[C@H](CC(C)C)NC(=O)[C@H](CO)NC(=O)[C@H](CCC(N)=O)NC(=O)[C@@H](NC(=O)[C@H](CO)NC(=O)[C@H](C)NC(=O)CC(=O)NCCCC(=O)O)C2CCCCC2)[C@H](O)[C@H](C)O1 [Prodrug 3, GABA←mGly-Ala-Ser-Chg-Gln-Ser-Leu-Dox] (X1-AS[Chg]QSL-{Doxorubicin(3'-N)}) | 1220 | excellent selectivity |
